Square brackets hold non-standard residues; d marks the D form. Peptide text beside a SMILES is read from it. Phe(4-NO2) = N[C@@H](Cc1ccc([N+](=O)[O-])cc1)C(=O)O; Phe(4-Cl) = N[C@@H](Cc1ccc(Cl)cc1)C(=O)O; NMeR = CN[C@@H](CCCNC(=N)N)C(=O)O; Aoc = NCCCCCCCC(=O)O; Sar = CNCC(=O)O
Experiment: Pharmacokinetic parameters after i.v. administration in rats
Type: in vivo
Details: extraction from rat plasma for LCMS
Description: Methods are as previously reported (Hill et al., ACS Med. Chem. Lett. 2014, 5(10), 1148-51; Lohman et al., Chem. Commun. (Camb), 2019, 55(89), 13362-13365; Neilsen et al., Org. Lett., 2012, 14(22), 5720-3; Neilsen et al, Chembiochem, 2015, 16(16), 2289-93; Justyna et al., Current Drug Targets, 2013, 14(7), 798-816)). Rats were surgically implanted with a jugular vein catheter (sterile polyethylene, o.d. 0.96 mm i.d. 0.58 mm, Microtube Extrusions, Aust.) and allowed to recover overnight. Baseline blood samples (t=0) were taken prior to peptide administration directly from the indwelling jugular vein catheter. Peptide was administered directly via the catheter (i.v route), followed by a 200 μL chaser volume of heparinised saline (20 U/mL) to flush the line. Further blood samples (200 μL/sample) were collected directly from the intravenous catheter at t=1, 5 15, 30, 60, 90 120 as 180 minutes post-administration. Volumes taken were replaced with heparinised saline to avoid hypovolaemia. […]
Samples were analysed using MassHunter Software packages, and area under the curve (AUC) was measured for each peak of interest in the MRM, as a direct measure of concentration of compound ions in the sample. […] Data was analysed using MS Excel software. […] Plasma half-life, volume of distribution and clearance were determined from the steady-state elimination phase.

Compound	Extract efficiency (%)
CC(C)C[C@H](NC(=O)[C@H](Cc1ccc([N+](=O)[O-])cc1)NC(=O)CN(C)C(=O)[C@@H](N)Cc1ccc(O)cc1)C(=O)N(C)[C@@H](CCCNC(=N)N)C(=O)N(C)[C@@H](CCCNC(=N)N)C(N)=O [SEQ ID NO. 19, NH2-Tyr-Sar-(4-NO2)Phe-Leu-NMA-NMA-NH2] (H-Y[Sar][Phe(4-NO2)]L[NMeR][NMeR]-NH2)	54.4
CC(C)C[C@H](NC(=O)[C@H](Cc1ccc(Cl)cc1)NC(=O)CN(C)C(=O)[C@@H](N)Cc1ccc(O)cc1)C(=O)N[C@@H](CCCNC(=N)N)C(=O)N[C@H](CCCNC(=N)N)C(=O)NCCCCCCCC(N)=O [SEQ ID NO. 24, NH2-Tyr-Sar-(4-Cl)Phe-Leu-Arg-DArg-C7H14-CONH2] (H-Y[Sar][Phe(4-Cl)]LR[dR][Aoc]-NH2)	62.4

From US20240301023A1 (priority 2020, published 2024)
